From PubChem BioAssay (EPA / NIEHS)
“And” between values parts separate entries of the source, which are not always exact repeats. Identical values can stand only once. The inconclusive results got no clear call from the source; some entries with a clear call stand among them for comparison. Potencies of inconclusive entries are doubtful fits and often do not repeat. The source made the active and inactive calls. The calls were made as follows: active = hit-call score of the fitted dose curve at least 0.9, where 1 is the maximum; inconclusive = response in the unintended direction; inactive = score below 0.9.

Sequences of proteins named here, by UniProt entry; tags and fusion partners are left off. A change or cut given only in a name is not applied to a line headed by its entry.
UniProt P19793: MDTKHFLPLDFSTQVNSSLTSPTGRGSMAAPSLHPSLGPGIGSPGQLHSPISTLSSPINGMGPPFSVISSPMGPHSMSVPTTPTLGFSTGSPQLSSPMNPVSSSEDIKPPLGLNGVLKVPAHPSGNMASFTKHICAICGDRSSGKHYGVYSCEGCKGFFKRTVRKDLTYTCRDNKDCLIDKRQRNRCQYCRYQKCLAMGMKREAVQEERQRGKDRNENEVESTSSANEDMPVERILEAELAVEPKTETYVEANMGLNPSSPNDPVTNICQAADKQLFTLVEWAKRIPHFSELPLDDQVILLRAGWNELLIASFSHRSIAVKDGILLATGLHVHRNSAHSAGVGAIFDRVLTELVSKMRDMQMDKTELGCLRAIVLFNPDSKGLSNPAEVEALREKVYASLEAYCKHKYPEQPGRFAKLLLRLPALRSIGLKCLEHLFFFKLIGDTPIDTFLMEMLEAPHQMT

These compounds were tested against Retinoic acid receptor RXR-alpha (Homo sapiens) (UniProt P19793) (assay: OT_NURR1_NURR1RXRa_0480: Odyssey Thera (OT) 8-hour HEK293T Protein Complementation Assay for Nurr1/retinoid X receptor (RXR) (AID 2283385)).
Method in brief: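 Interaction of Nurr1 with RXRα read as reconstituted reporter fluorescence in a HEK293T fragment-complementation system, 8 h post-treatment; increase over DMSO baseline analysed.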

| SMILES | AC50 | outcome |
| --- | --- | --- |
| O=c1n(CC2CO2)c(=O)n(CC2CO2)c(=O)n1CC1CO1 (configuration not stated) | active: 50 µM and active: 34.7 µM |  |
| Cc1ccc(S(=O)(=O)NCl)cc1 | inconclusive: 52.5 µM |  |
| CCC(C)(C)C1CCC(=O)CC1 |  | inactive |
| CC(=O)OCCOC(C)=O | inconclusive: 50 µM |  |
| OCC(CO)(CO)CO | inconclusive: 50 µM |  |
| CC(C)c1cccc(O)c1 |  | inactive |
| CCO[Si](C)(OCC)OCC | inconclusive: 50 µM |  |
| O=C1CCCC1 | inconclusive: 0.03 µM |  |
| CCC(C)(C)C(=O)O[C@H]1C[C@@H](C)C=C2C=C[C@H](C)[C@H](CC[C@@H]3C[C@@H](O)CC(=O)O3)[C@H]21 |  | inactive |
| CC(O)C(=O)O (configuration not stated) | inconclusive: 50 µM |  |
| COC(=O)c1ccc(O)cc1 | inconclusive: 7.33 µM and inconclusive: 92.4 µM |  |
| COc1ccc2[nH]cc(CCNC(C)=O)c2c1 | inconclusive: 3.92 µM |  |
| CC(C)CCCCCCOC(=O)C1CCCCC1C(=O)OCCCCCCC(C)C (configuration not stated) |  | inactive |
| CCCCCCCCCCCCCCCCCCOS(=O)(=O)O | inconclusive: 5.85 µM |  |
| O=CCCCC=O | active: 50 µM |  |

What follows are compounds tested against Retinoic acid receptor RXR-alpha (Homo sapiens) (UniProt P19793) (assay: OT_NURR1_NURR1RXRa_1440: Odyssey Thera (OT) 24-hour HEK293T Protein Complementation Assay for Nurr1/retinoid X receptor (RXR) (AID 2283386)).
Method in brief: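 Gain in fluorescence, fitted relative to DMSO, reflects Nurr1–RXRα association in HEK293T cells after 24 h dosing. Bait and prey are each linked to a reporter-protein fragment that reassembles on interaction.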

| SMILES | AC50 | outcome |
| --- | --- | --- |
| CCCC(=O)OCCC(C)C | inconclusive: 50 µM | inactive |
| CCCCCCCCCc1ccc(OCCO)cc1 | active: 32.9 µM |  |
| CCCCCCCCN(C)CCCCCCCC | inconclusive: 50.5 µM | inactive |
| CCCc1ccc(OC)cc1 | inconclusive: 50.5 µM |  |
| CC(C)(C)c1ccc(N)cc1 |  | inactive |
| CCCCOC(=O)CCCCCCCCC(=O)OCCCC | inconclusive: 50 µM | inactive |
| Cc1cccc(O)c1C | inconclusive: 51 µM |  |
| CCC/C=C/C=O | inconclusive: 50 µM |  |
| Nc1nc(=S)c2[nH]cnc2[nH]1 | inconclusive: 1.14 µM |  |
| O=C(N[C@@H](c1ccccc1)[C@@H]1CCCCN1)c1cccc(C(F)(F)F)c1Cl | inconclusive: 87.7 µM and inconclusive: 50 µM |  |
| O=C(O)c1ccccc1 | inconclusive: 2.55 µM and inconclusive: 51 µM | inactive |
| CCCCCCCC[N+](C)(CCCCCCCC)CCCCCCCC | inconclusive: 9.32 µM |  |
| CC(C)(C)c1ccc(-c2ccc(C(C)(C)C)cc2)cc1 | active: 78.3 µM |  |
| CCCCCCCCCCCC(=O)N(C)CC(=O)O | inconclusive: 48.8 µM |  |
| O=C(c1ccccc1)C1CCC1 | inconclusive: 50 µM |  |
| NCCCN1CCOCC1 | inconclusive: 50 µM |  |
| C=C(C)C(=O)OCCC(F)(F)C(F)(F)C(F)(F)C(F)(F)C(F)(F)C(F)(F)F | inconclusive: 50 µM | inactive |
| NS(=O)(=O)c1cc2c(cc1Cl)NCNS2(=O)=O | inconclusive: 0.35 µM |  |
| CCCCCCC(CCCCCCCCCCC(=O)OCC(COC(C)=O)OC(C)=O)OC(C)=O (configuration not stated) | inconclusive: 11.5 µM | inactive |
| NC(=O)NN=Cc1ccc([N+](=O)[O-])o1 | inconclusive: 50 µM | inactive |
| CC(C)c1ccc2cc(C(C)C)ccc2c1 | active: 97.6 µM |  |
| CCC(C)N(C)C(=O)c1cc2ccccc2c(-c2ccccc2Cl)n1 (configuration not stated) | inconclusive: 8.62 µM | inactive |
| CC1COc2ccccc2N1C(=O)C(Cl)Cl (configuration not stated) | inconclusive: 50 µM |  |
| O=C1OC2(c3ccccc31)c1cc(Br)c(O)c(Br)c1Oc1c2cc(Br)c(O)c1Br |  | inactive |
